From US20140137274A1, “INDUCED MALIGNANT STEM CELLS” (LSIP, LLC, priority 2011, published 2014)

Tested on: endogenous cancer-related proteins
Test: protein identification analysis (iTRAQ labeling, MALDI TOF/MS)
Set-up: species or system human
Conditions: for Relative quantity (test vs control) Ratio cc4-d/ ncc4: protein amount in cc4-d relative to ncc4 (colon non-cancer tissues, negative control); for Relative quantity (test vs control) Ratio cc4/ ncc4: protein amount in cc4 relative to ncc4 (colon non-cancer tissues, negative control)

Molecule	Relative quantity (test vs control) Ratio cc4-d/ ncc4	Relative quantity (test vs control) Ratio cc4/ ncc4
Putative elongation factor 1-alpha-like 3 (protein, UniProt Q5VTE0 2-462, looked up) Putative elongation factor …: GKEKTHINIVVIGHVDSGKSTTTGHLIYKCGGIDKRTIEKFEKEAAEMGKGSFKYAWVLDKLKAERERGITIDISLWKFETSKYYVTIIDAPGHRDFIKNMITGTSQADCAVLIVAAGVGEFEAGISKNGQTREHALLAYTLGVKQLIVGVNKMDSTEPPYSQKRYEEIVKEVSTYIKKIGYNPDTVAFVPISGWNGDNMLEPSANMPWFKGWKVTRKDGNASGTTLLEALDCILPPTRPTDKPLRLPLQDVYKIGGIGTVPVGRVETGVLKPGMVVTFAPVNVTTEVKSVEMHHEALSEALPGDNVGFKVKNVSVKDVRRGNVAGDSKNDPPMEAAGFTAQVIILNHPGQISAGYAPVLDCHMAHIACKFAELKEKIDRRSGKKLEDGPKFLKSGDAAIVDMVPGKPMCVESFSDYPPLGRFAVRDMRQTVAVGVIKAVDKKAAGAGKVTKSAQKAQKAK	1.073	1.076
PGK1 [Homo sapiens] (protein, UniProt P00558 2-417, looked up) Phosphoglycerate kinase 1: SLSNKLTLDKLDVKGKRVVMRVDFNVPMKNNQITNNQRIKAAVPSIKFCLDNGAKSVVLMSHLGRPDGVPMPDKYSLEPVAVELKSLLGKDVLFLKDCVGPEVEKACANPAAGSVILLENLRFHVEEEGKGKDASGNKVKAEPAKIEAFRASLSKLGDVYVNDAFGTAHRAHSSMVGVNLPQKAGGFLMKKELNYFAKALESPERPFLAILGGAKVADKIQLINNMLDKVNEMIIGGGMAFTFLKVLNNMEIGTSLFDEEGAKIVKDLMSKAEKNGVKITLPVDFVTADKFDENAKTGQATVASGIPAGWMGLDCGPESSKKYAEAVTRAKQIVWNGPVGVFEWEAFARGTKALMDEVVKATSRGCITIIGGGDTATCCAKWNTEDKVSHVSTGGGASLELLEGKVLPGVDALSNI	1.225	1.137
calreticulin precursor [Homo sapiens] (protein, UniProt P27797 1-417, looked up, full-length) MLLSVPLLLGLLGLAVAEPAVYFKEQFLDGDGWTSRWIESKHKSDFGKFVLSSGKFYGDEEKDKGLQTSQDARFYALSASFEPFSNKGQTLVVQFTVKHEQNIDCGGGYVKLFPNSLDQTDMHGDSEYNIMFGPDICGPGTKKVHVIFNYKGKNVLINKDIRCKDDEFTHLYTLIVRPDNTYEVKIDNSQVESGSLEDDWDFLPPKKIKDPDASKPEDWDERAKIDDPTDSKPEDWDKPEHIPDPDAKKPEDWDEEMDGEWEPPVIQNPEYKGEWKPRQIDNPDYKGTWIHPEIDNPEYSPDPSIYAYDNFGVLGLDLWQVKSGTIFDNFLITNDEAYAEEFGNETWGVTKAAEKQMKDKQDEEQRLKEEEEDKKRKEEEEAEDKEDDEDKDEDEEDEEDKEEDEEEDVPGQAKDEL	1.007	0.9834
Keratin 8 [Homo sapiens] (protein, UniProt P05787 1-483, looked up) Keratin, type II cytoskeletal …: MSIRVTQKSYKVSTSGPRAFSSRSYTSGPGSRISSSSFSRVGSSNFRGGLGGGYGGASGMGGITAVTVNQSLLSPLVLEVDPNIQAVRTQEKEQIKTLNNKFASFIDKVRFLEQQNKMLETKWSLLQQQKTARSNMDNMFESYINNLRRQLETLGQEKLKLEAELGNMQGLVEDFKNKYEDEINKRTEMENEFVLIKKDVDEAYMNKVELESRLEGLTDEINFLRQLYEEEIRELQSQISDTSVVLSMDNSRSLDMDSIIAEVKAQYEDIANRSRAEAESMYQIKYEELQSLAGKHGDDLRRTKTEISEMNRNISRLQAEIEGLKGQRASLEAAIADAEQRGELAIKDANAKLSELEAALQRAKQDMARQLREYQELMNVKLALDIEIATYRKLLEGEESRLESGMQNMSIHTKTTSGYAGGLSSAYGGLTSPGLSYSLGSSFGSGAGSSSFSRTSSSRAVVVKKIETRDGKLVSESSDVLPK	1.614	0.7925
ER-60 protein [Homo sapiens] (protein, UniProt P30101 25-505, looked up) Protein disulfide-isomerase A3: SDVLELTDDNFESRISDTGSAGLMLVEFFAPWCGHCKRLAPEYEAAATRLKGIVPLAKVDCTANTNTCNKYGVSGYPTLKIFRDGEEAGAYDGPRTADGIVSHLKKQAGPASVPLRTEEEFKKFISDKDASIVGFFDDSFSEAHSEFLKAASNLRDNYRFAHTNVESLVNEYDDNGEGIILFRPSHLTNKFEDKTVAYTEQKMTSGKIKKFIQENIFGICPHMTEDNKDLIQGKDLLIAYYDVDYEKNAKGSNYWRNRVMMVAKKFLDAGHKLNFAVASRKTFSHELSDFGLESTAGEIPVVAIRTAKGEKFVMQEEFSRDGKALERFLQDYFDGNLKRYLKSEPIPESNDGPVKVVVAENFDEIVNNENKDVLIEFYAPWCGHCKNLEPKYKELGEKLSKDPNIVIAKMDATANDVPSPYEVRGFPTIYFSPANKKLNPKKYEGGRELSDFISYLQREATNPPVIQEEKPKKKKKAQEDL	1.058	1.409
heat shock protein 60 [Homo sapiens] (protein, UniProt P10809 27-573, looked up) 60 kDa heat shock protein, …: AKDVKFGADARALMLQGVDLLADAVAVTMGPKGRTVIIEQSWGSPKVTKDGVTVAKSIDLKDKYKNIGAKLVQDVANNTNEEAGDGTTTATVLARSIAKEGFEKISKGANPVEIRRGVMLAVDAVIAELKKQSKPVTTPEEIAQVATISANGDKEIGNIISDAMKKVGRKGVITVKDGKTLNDELEIIEGMKFDRGYISPYFINTSKGQKCEFQDAYVLLSEKKISSIQSIVPALEIANAHRKPLVIIAEDVDGEALSTLVLNRLKVGLQVVAVKAPGFGDNRKNQLKDMAIATGGAVFGEEGLTLNLEDVQPHDLGKVGEVIVTKDDAMLLKGKGDKAQIEKRIQEIIEQLDVTTSEYEKEKLNERLAKLSDGVAVLKVGGTSDVEVNEKKDRVTDALNATRAAVEEGIVLGGGCALLRCIPALDSLTPANEDQKIGIEIIKRTLKIPAMTIAKNAGVEGSLIVEKIMQSSSEVGYDAMAGDFVNMVEKGIIDPTKVVRTALLDAAGVASLLTTAEVVVTEIPKEEKDPGMGAMGGMGGGMGGGMF	0.9412	1.19
transgelin variant [Homo sapiens] (protein, UniProt Q01995 2-201, looked up) Transgelin: ANKGPSYGMSREVQSKIEKKYDEELEERLVEWIIVQCGPDVGRPDRGRLGFQVWLKNGVILSKLVNSLYPDGSKPVKVPENPPSMVFKQMEQVAQFLKAAEDYGVIKTDMFQTVDLFEGKDMAAVQRTLMALGSLAVTKNDGHYRGDPNWFMKKAQEHKREFTESQLQEGKHVIGLQMGSNRGASQAGMTGYGRPRQIIS	0.3872	0.2963
